Assay results from the supplement of paper PMC12823440, “Inhibitors supercharge kinase turnover through native proteolytic circuits” (Nature, 2025).
The other results are listed elsewhere or left out. Hit calls seldom repeat between salt and free forms of one compound.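 Kinases, fused to nanoluciferase, were expressed in K562 cells; luminescence was measured every 4 h from 2 to 18 h as percent of control (DMSO = 100%, positive control = 0%). A time point is decreased if signal falls significantly (2 sigma). Hits were called by the authors by a rule that is not shown; the count of time points alone does not decide it.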

By UniProt entry, the sequences of proteins in these tests, tags left out. Where a name states a change or a piece, a line headed by the entry shows the natural chain unless it says otherwise.
UniProt Q8IWU2: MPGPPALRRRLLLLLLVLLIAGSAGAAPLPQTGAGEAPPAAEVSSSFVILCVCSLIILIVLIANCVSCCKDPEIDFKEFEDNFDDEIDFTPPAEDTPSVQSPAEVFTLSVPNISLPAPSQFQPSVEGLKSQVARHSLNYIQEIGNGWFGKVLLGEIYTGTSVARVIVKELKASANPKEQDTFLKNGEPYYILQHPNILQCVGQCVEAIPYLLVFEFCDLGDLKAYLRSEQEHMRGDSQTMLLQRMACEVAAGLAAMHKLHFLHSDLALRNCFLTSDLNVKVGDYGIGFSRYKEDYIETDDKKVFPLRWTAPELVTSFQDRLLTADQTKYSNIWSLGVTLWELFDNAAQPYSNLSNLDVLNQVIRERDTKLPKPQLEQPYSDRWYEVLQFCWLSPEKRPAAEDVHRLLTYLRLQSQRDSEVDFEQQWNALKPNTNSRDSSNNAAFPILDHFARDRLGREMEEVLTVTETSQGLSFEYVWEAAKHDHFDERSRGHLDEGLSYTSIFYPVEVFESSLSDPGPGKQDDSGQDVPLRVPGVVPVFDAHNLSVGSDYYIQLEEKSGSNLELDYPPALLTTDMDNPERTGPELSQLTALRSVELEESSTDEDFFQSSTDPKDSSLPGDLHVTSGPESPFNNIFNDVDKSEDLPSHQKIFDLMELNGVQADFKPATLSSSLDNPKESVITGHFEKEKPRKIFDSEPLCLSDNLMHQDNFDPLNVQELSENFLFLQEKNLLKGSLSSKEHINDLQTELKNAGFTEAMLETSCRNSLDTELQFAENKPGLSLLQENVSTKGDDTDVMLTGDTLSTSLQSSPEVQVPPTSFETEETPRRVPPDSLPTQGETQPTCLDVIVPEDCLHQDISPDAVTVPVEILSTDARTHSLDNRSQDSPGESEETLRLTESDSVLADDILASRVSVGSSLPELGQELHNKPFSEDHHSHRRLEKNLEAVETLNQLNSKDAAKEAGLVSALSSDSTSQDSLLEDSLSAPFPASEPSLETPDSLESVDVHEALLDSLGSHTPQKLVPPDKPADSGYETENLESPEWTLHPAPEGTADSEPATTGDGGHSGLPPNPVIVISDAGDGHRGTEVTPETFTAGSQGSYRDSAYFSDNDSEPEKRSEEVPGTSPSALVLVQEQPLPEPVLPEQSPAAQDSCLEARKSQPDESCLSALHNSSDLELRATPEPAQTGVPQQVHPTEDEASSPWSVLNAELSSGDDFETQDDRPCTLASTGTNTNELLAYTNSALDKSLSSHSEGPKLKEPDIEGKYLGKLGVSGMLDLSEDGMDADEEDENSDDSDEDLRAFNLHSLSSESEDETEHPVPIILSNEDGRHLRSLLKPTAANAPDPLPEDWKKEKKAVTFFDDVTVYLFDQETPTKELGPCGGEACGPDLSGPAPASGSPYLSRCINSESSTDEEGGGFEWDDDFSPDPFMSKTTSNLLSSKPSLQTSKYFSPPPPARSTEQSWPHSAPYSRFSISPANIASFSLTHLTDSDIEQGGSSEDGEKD
UniProt P07948: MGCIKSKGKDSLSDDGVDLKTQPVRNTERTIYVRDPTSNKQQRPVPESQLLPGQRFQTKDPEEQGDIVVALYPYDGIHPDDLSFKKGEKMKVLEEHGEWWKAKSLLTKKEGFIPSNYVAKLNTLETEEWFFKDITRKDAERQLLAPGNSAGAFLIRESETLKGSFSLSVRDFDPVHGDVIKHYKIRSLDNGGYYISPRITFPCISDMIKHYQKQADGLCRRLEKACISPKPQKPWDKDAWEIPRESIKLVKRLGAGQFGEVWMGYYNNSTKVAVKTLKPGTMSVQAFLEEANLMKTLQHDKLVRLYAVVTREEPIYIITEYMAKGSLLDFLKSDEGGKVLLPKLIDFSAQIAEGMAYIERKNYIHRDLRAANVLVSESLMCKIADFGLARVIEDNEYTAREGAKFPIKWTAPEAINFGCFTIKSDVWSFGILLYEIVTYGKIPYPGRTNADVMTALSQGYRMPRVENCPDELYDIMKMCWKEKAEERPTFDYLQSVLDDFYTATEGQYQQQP
UniProt Q12851: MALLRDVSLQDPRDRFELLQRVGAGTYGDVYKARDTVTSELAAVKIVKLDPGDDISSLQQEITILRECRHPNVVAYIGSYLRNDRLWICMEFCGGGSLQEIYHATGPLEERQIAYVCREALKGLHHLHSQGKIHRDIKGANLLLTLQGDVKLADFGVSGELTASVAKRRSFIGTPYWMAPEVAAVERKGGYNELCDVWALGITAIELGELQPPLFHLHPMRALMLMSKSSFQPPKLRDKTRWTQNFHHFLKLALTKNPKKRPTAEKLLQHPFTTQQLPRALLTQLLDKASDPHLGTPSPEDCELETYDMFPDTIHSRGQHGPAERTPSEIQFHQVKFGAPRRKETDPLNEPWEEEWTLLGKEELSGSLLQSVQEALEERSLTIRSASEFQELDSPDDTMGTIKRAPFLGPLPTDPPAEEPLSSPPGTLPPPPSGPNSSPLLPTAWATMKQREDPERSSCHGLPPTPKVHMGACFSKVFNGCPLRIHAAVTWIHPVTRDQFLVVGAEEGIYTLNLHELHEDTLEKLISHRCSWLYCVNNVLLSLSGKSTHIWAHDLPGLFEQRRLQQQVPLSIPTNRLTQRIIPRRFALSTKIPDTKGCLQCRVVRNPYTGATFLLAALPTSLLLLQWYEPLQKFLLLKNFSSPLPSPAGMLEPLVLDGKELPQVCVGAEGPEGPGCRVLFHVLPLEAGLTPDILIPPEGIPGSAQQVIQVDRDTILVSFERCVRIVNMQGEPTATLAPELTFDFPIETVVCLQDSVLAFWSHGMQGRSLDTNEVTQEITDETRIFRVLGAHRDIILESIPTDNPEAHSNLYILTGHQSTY
UniProt P28482, whole entry: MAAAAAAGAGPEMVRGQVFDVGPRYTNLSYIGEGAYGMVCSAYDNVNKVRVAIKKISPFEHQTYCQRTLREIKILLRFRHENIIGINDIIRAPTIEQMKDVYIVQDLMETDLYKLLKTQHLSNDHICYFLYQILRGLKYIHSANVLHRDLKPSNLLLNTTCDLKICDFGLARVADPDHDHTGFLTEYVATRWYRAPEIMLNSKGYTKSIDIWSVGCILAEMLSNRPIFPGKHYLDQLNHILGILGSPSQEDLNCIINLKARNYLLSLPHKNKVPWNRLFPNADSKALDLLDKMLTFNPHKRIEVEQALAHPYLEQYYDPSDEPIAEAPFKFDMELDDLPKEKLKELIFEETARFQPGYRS
UniProt P31152, whole entry: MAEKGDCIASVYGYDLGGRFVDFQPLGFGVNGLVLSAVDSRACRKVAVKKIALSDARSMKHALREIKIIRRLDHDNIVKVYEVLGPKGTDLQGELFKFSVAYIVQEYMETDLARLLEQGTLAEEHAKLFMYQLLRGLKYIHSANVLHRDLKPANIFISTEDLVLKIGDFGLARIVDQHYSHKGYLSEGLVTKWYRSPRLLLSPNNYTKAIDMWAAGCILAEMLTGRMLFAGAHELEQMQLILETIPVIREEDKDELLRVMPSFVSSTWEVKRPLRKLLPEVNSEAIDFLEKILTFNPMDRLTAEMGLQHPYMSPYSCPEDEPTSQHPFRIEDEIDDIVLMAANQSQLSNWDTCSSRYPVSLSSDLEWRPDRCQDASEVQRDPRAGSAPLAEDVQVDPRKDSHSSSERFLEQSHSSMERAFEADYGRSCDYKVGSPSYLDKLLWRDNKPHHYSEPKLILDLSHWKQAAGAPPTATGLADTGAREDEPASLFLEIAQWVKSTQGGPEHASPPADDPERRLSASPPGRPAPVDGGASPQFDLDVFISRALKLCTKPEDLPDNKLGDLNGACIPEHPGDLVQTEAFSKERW
UniProt P49137, whole entry, looked up: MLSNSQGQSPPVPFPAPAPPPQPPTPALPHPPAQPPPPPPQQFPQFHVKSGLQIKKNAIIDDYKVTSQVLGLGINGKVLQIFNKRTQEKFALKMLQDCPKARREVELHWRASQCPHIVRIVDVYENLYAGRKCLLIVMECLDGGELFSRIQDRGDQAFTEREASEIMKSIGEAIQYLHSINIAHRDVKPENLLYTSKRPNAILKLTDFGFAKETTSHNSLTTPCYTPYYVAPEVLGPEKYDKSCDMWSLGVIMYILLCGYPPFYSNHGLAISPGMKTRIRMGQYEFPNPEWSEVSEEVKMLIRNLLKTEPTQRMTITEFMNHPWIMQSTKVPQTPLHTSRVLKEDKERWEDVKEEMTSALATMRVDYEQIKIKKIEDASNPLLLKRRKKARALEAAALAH
UniProt Q9BUB5: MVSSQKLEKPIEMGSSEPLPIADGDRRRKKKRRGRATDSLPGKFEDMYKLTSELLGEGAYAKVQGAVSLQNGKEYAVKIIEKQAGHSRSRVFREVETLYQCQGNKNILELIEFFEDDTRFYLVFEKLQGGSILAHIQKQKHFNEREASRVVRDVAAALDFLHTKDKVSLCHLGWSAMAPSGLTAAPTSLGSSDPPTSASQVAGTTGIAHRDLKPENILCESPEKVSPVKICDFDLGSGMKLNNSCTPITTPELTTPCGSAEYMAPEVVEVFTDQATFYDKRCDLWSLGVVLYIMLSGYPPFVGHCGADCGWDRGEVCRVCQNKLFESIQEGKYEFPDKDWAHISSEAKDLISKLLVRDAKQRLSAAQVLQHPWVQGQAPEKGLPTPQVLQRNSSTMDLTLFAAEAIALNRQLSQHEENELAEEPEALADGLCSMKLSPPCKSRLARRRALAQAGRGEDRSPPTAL
UniProt Q16620, whole entry, looked up: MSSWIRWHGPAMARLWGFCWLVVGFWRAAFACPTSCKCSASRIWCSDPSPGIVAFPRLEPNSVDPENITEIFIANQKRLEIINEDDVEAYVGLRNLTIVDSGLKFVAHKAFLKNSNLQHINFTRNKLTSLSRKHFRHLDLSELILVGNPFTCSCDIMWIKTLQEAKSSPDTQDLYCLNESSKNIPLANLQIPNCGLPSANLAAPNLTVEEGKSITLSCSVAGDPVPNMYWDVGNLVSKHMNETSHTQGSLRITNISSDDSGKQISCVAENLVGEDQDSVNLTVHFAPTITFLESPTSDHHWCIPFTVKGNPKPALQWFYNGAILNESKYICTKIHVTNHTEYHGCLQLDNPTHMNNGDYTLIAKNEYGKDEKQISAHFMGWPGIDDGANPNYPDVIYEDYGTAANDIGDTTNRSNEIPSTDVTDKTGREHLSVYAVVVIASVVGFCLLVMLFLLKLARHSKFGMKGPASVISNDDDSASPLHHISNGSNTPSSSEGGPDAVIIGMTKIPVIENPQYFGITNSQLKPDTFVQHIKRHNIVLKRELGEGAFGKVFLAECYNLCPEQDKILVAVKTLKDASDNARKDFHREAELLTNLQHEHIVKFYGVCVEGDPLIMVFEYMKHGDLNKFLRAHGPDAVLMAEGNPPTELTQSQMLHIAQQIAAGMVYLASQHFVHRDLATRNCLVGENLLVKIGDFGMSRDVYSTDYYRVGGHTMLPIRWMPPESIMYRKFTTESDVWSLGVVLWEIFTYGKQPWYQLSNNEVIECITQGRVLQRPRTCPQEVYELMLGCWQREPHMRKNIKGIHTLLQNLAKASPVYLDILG

Tests used:
Assay in all cases: number of time points (of 5) at which kinase-Nluc abundance scored as decreased, DMSO-normalised (count); higher = more persistent destabilization
Settings in all cases: K562; 2-18 h
LMTK2 = LMTK2 (UniProt Q8IWU2)
LYN = LYN (UniProt P07948)
MAP2K1 = MAP2K1 (UniProt Q02750)
MAP2K2 = MAP2K2 (UniProt P36507)
MAP4K2 = MAP4K2 (UniProt Q12851)
MAPK1 = MAPK1 (UniProt P28482)
MAPK4 = MAPK4 (UniProt P31152)
MAPKAPK2 = MAPKAPK2 (UniProt P49137)
MKNK1 = MKNK1 (UniProt Q9BUB5)
NTRK2 = NTRK2 (UniProt Q16620)

Measured: number of time points

CN(C)CCCNc1ccn2ncc(-c3ccc4c(c3)OCO4)c2n1 (10 µM)
0: all assays above

Cc1cc(F)c(Nc2ncnc3cc(OCc4ccccc4)ccc23)cc1O (10 µM)
0: all assays above

Nc1n[nH]c(N)c1N=Nc1ccc(O)cc1 (10 µM)
0: all assays above

O=C1c2c(O)cc(O)cc2O[C@H](c2cc(O)c(O)c(O)c2)[C@H]1O [Dihydromyricetin] (10 µM)
0: all assays above

Clc1ccc(Nc2cccc(-c3cn[nH]c3)c2)cc1 (10 µM)
0: all assays above

C[C@H](CC[C@@H](O)C(C)(C)O)[C@H]1CC[C@@]2(C)[C@@H]3CC=C4[C@@H](CC[C@H](O)C4(C)C)[C@]3(C)[C@H](O)C[C@]12C [Mogrol] (10 µM)
0: all assays above

NC(=O)c1ccc2nc(-c3ccc(C4(N)CCC4)cc3)c(-c3ccccc3)n2n1 (10 µM)
0: all assays above

Cc1nc(NC(=O)N2CCC[C@H]2C(N)=O)sc1-c1csc(C(C)(C)C)n1 (10 µM)
0: all assays above

CNS(=O)(=O)Nc1nccc(Cc2c(C)c3ccc(Oc4ncccn4)cc3oc2=O)c1F (10 µM)
0: all assays above

NC(=O)c1cccc2c(N[C@H](CN3CCC3)c3ccc(Cl)c(C(F)(F)F)c3)ncnc12 (10 µM)
0: all assays above

Cn1cc(-c2ccc3nnc(Sc4ccc5nn(C)cc5c4)n3n2)cn1 [c-Met inhibitor 1] (10 µM)
0: all assays above

Pulled by compound from the list above, two records:
Nc1n[nH]c(N)c1N=Nc1ccc(O)cc1 (10 µM)
0: all assays above

O=C1c2c(O)cc(O)cc2O[C@H](c2cc(O)c(O)c(O)c2)[C@H]1O [Dihydromyricetin] (10 µM)
0: all assays above

Later entries:

CCOc1cc(C(=O)N2CCC(N3CCN(C)CC3)CC2)ccc1Nc1ncc2c(n1)N(S(C)(=O)=O)c1ccccc1C(=O)N2C (10 µM)
0: all assays above

O=C(O)[C@]1(Cc2cccc(Nc3nccs3)n2)CC[C@@H](Oc2cccc(Cl)c2F)CC1 (2.5 µM)
1: MAPK4 | MKNK1 | NTRK2
0: all other assays above

CCCCCC1CC1CC1CC1CCCCCCCC(=O)O (stereo not given) (10 µM)
0: all assays above

CS(=O)(=O)N1CCN(Cc2cn3cc(-c4cnc(N)nc4)nc(N4CCOCC4)c3n2)CC1 (10 µM)
1: MKNK1
0: all other assays above

O=C1C(=Cc2ccc(O)c(O)c2)Oc2ccccc21 (2.5 µM)
0: all assays above

CCn1c2ccccc2c2cc(Nc3ccnc(NCCCN4CCOCC4)n3)ccc21 (2.5 µM)
0: all assays above

CNC(=O)Nc1cc(Oc2cncc(C)c2)c(-c2ccc(OCC(C)(C)O)nc2)cn1 (2.5 µM)
0: all assays above

O=C(c1ccc(NS(=O)(=O)c2cccc3cccnc23)cc1)N1CCN(CC2CC2)CC1 [Mitapivat] (10 µM)
0: all assays above
